PubChem BioAssay AID743121, NCATS, 2013
The whole screen tested about 26,000 reagents; this is a part drawn at random. Of all reagents, 167 (0.63%) are marked active. 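Calls are per gene from RSA p-values that are not deposited; an individual active-marked siRNA can sensitise only weakly.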 Unmarked entries are inactive. Reagents against one gene are numbered here.

Aim: 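Genes whose silencing strengthens cell killing by camptothecin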 (primary screen)
Cells: MDA-MB-231 cells, a human breast cancer line
Knock-down reagent: single siRNA against human genes, 20 nM siRNA (0.8 pmol per well)
Time to read-out: 120 h (drug added 48 h after transfection, read 72 h later)
Challenge: camptothecin 20 nM (about EC30) for 72 h; vehicle 0.1% DMSO in parallel plates
Measured: 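Cell viability by ATP luminescence (CellTiter-Glo) as % of non-targeting siRNA wells, and the log2 ratio of viability without drug over viability with camptothecin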
Scale: log2 vehicle/camptothecin viability: higher = stronger sensitisation to camptothecin; viability with camptothecin and viability without drug: higher = more viable cells
Hit rule: 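Active genes have an RSA gene-level p-value below 0.001, computed from the ratios of their separate siRNAs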

gene knocked down	reagent	log2 vehicle/camptothecin viability	viability with camptothecin (% of control)	viability without drug (% of control)
NR2F6 (GeneID 2063)	1	-0.00367	73.8	73.6
NR2F6 (GeneID 2063)	2	-0.701	88	54.1
NR2F6 (GeneID 2063)	3	-0.194	70.3	61.5
NR2F6 (GeneID 2063)	4	0.0159	83	83.9
CABIN1 (GeneID 23523)	1	-0.053	96.5	93
CABIN1 (GeneID 23523)	2	-0.376	72.1	55.6
CABIN1 (GeneID 23523)	3	-0.218	82.6	71
CABIN1 (GeneID 23523)	4	-0.107	85.7	79.6
PTPRVP (GeneID 148713)	1	0.132	90.9	99.6
PTPRVP (GeneID 148713)	2	-0.34	59.3	46.8
PTPRVP (GeneID 148713)	3	0.141	67.5	74.5
PTPRVP (GeneID 148713)	4	-0.00432	80	79.7

In a second layout: entries from further up.
gene knocked down | reagent | log2 vehicle/camptothecin viability | viability with camptothecin (% of control) | viability without drug (% of control)
CABIN1 (GeneID 23523) | 2 | -0.376 | 72.1 | 55.6
CABIN1 (GeneID 23523) | 3 | -0.218 | 82.6 | 71
CABIN1 (GeneID 23523) | 4 | -0.107 | 85.7 | 79.6

Continued.
gene knocked down	reagent	log2 vehicle/camptothecin viability	viability with camptothecin (% of control)	viability without drug (% of control)
CAMK4 (GeneID 814)	1	-0.312	98.1	79
CAMK4 (GeneID 814)	2	-0.375	96.3	74.3
CAMK4 (GeneID 814)	3	-0.262	60.3	50.3
CAMK4 (GeneID 814)	4	-0.0258	110	108
MLH1 (GeneID 4292)	1	-0.717	43.6	26.5
MLH1 (GeneID 4292)	2	-0.141	97.9	88.8
MLH1 (GeneID 4292)	3	-0.273	89	73.7
MLH1 (GeneID 4292)	4	-0.51	72.9	51.2
ABCA4 (GeneID 24)	1	-0.187	68.5	60.1
ABCA4 (GeneID 24)	2	0.318	68.6	85.5
ABCA4 (GeneID 24)	3	-0.00172	98.3	98.2
ABCA4 (GeneID 24)	4	0.0154	44.6	45.1
KMT5C (GeneID 84787)	1	-0.101	103	95.7
KMT5C (GeneID 84787)	2	-0.693	65.8	40.7
KMT5C (GeneID 84787)	3	0.242	26.5	31.3
KMT5C (GeneID 84787)	4	0.0415	7.33	7.54
